# Data as given in PubChem BioAssay AID1224827 (NIAID, 2016)
# Test: 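Retest primary hits on a TNF reporter with six siRNAs per gene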 (follow-up of hits)
# Cells: RAW264.7 G9 mouse macrophage reporter clone
# Reagent: single siRNA against mouse genes, 100 nM siRNA
# Time to read-out: siRNA for 2 days, then LPS about 16 h
# Conditions: bacterial lipopolysaccharide (LPS), 10 ng/ml, cells fixed after overnight (about 16 h) stimulation
# Detection: 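TNF promoter reporter red fluorescence in nuclei, background subtracted, normalised per plate and to non-targeting control siRNA, as z-scores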
# Direction: TNF reporter z-score, mean and TNF reporter z-score: higher = stronger Tnf promoter reporter signal; gene median z, three same-vendor siRNAs: higher = stronger Tnf reporter signal for the gene
# Rule for the call: 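Active siRNA: replicate-mean z-score of 2 or more, or -2 or less; no calls for control wells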
# The whole screen tested about 3,800 reagents; below is a random part of them. In the full data, about 2,200 (57%) got an active call. 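Active means a strong reporter change in either direction; calls are per siRNA, not per gene; qiagen siRNAs gave weaker effects.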 Reagents against one gene are numbered here. Reagent sequences are not shown.
target,reagent no.,"TNF reporter z-score, mean","gene median z, three same-vendor siRNAs","TNF reporter z-score, repeat 1","TNF reporter z-score, repeat 2",call
Ido1,1,-3,-4.49,-4.25,-1.76,active
Ido1,2,-3.48,-4.49,-4.74,-2.22,active
Ido1,3,-6.27,-4.49,-5.92,-6.61,active
Ido1,4,2.86,0.332,4.79,0.93,active
Ido1,5,1.02,0.332,2.3,-0.266,inactive
Ido1,6,-1.1,0.332,-1.68,-0.517,inactive
Hnrnph1,1,-3.41,-4.48,-1.78,-5.04,active
Hnrnph1,2,-4.46,-4.48,-4.41,-4.51,active
Hnrnph1,3,-5.15,-4.48,-4.45,-5.86,active
Hnrnph1,4,1.34,-0.618,3.46,-0.787,inactive
Hnrnph1,5,0.654,-0.618,2.55,-1.24,inactive
Hnrnph1,6,-0.619,-0.618,-0.449,-0.789,inactive
Rpf2,1,-0.515,-3.8,-1.32,0.292,inactive
Rpf2,2,-3.8,-3.8,-4.04,-3.57,active
Rpf2,3,-5.62,-3.8,-5.07,-6.18,active
Rpf2,4,1.94,0.438,3.3,0.582,inactive
Rpf2,5,0.661,0.438,1.03,0.293,inactive
Rpf2,6,-3.22,0.438,-3.73,-2.71,active
Or4x6,1,-2.23,-2.85,-2.27,-2.18,active
Or4x6,2,-2.37,-2.85,-3.49,-1.24,active
Or4x6,3,-3.45,-2.85,-3.44,-3.46,active
Or4x6,4,5.17,0.827,9.48,0.864,active
Or4x6,5,1.65,0.827,2.5,0.79,inactive
Or4x6,6,-4.17,0.827,-4.71,-3.64,active
Muc19,1,-0.744,-3.18,-3.5,2.02,inactive
Muc19,2,-2.71,-3.18,-2.57,-2.85,active
Muc19,3,-5.28,-3.18,-5.86,-4.71,active
Muc19,4,-0.0226,-0.831,0.0101,-0.0553,inactive
Muc19,5,-0.349,-0.831,0.909,-1.61,inactive
Muc19,6,-3.03,-0.831,-2.59,-3.47,active
Grap,1,-1.09,-3.62,-1.18,-0.997,inactive
Grap,2,-3.96,-3.62,-3.57,-4.35,active
Grap,3,-4.42,-3.62,-5.18,-3.67,active
Grap,4,1.64,0.211,2.65,0.641,inactive
Grap,5,0.683,0.211,1.58,-0.218,inactive
Grap,6,-2.22,0.211,-2.62,-1.81,active
Hs3st1,1,-2.19,-2.68,-1.62,-2.77,active
Hs3st1,2,-2.29,-2.68,-1.98,-2.6,active
Hs3st1,3,-3.37,-2.68,-3.77,-2.97,active
Hs3st1,4,2.19,0.204,3.76,0.632,active
Hs3st1,5,1.75,0.204,3.73,-0.224,inactive
Hs3st1,6,-2.4,0.204,-3.12,-1.69,active
Slc16a10,1,-0.879,-1.46,-0.907,-0.851,inactive
Slc16a10,2,-1.46,-1.46,-1.57,-1.35,inactive
Slc16a10,3,-6.64,-1.46,-5.84,-7.44,active
Slc16a10,4,0.896,0.0781,2.62,-0.825,inactive
Slc16a10,5,0.662,0.0781,1.83,-0.503,inactive
Slc16a10,6,-0.359,0.0781,0.659,-1.38,inactive
Ptges,1,-1.76,-2.81,-1.61,-1.91,inactive
Ptges,2,-2.97,-2.81,-2.96,-2.98,active
Ptges,3,-4.42,-2.81,-2.67,-6.16,active
Ptges,4,0.902,-0.119,1.55,0.254,inactive
Ptges,5,0.846,-0.119,2.18,-0.491,inactive
Ptges,6,-1.67,-0.119,-1.47,-1.88,inactive
Runx2,1,-3.27,-4.09,-3.42,-3.12,active
Runx2,2,-4.09,-4.09,-3.66,-4.52,active
Runx2,3,-4.91,-4.09,-5.2,-4.61,active
Runx2,4,2.88,2.88,4.57,1.19,active
Runx2,5,2.95,2.88,5.8,0.0922,active
Runx2,6,2.48,2.88,5.44,-0.489,active

10 neighbouring reagents already listed:
target,reagent no.,"TNF reporter z-score, mean","gene median z, three same-vendor siRNAs","TNF reporter z-score, repeat 1","TNF reporter z-score, repeat 2",call
Muc19,3,-5.28,-3.18,-5.86,-4.71,active
Muc19,4,-0.0226,-0.831,0.0101,-0.0553,inactive
Muc19,5,-0.349,-0.831,0.909,-1.61,inactive
Muc19,6,-3.03,-0.831,-2.59,-3.47,active
Grap,1,-1.09,-3.62,-1.18,-0.997,inactive
Grap,2,-3.96,-3.62,-3.57,-4.35,active
Grap,3,-4.42,-3.62,-5.18,-3.67,active
Grap,4,1.64,0.211,2.65,0.641,inactive
Grap,5,0.683,0.211,1.58,-0.218,inactive
Grap,6,-2.22,0.211,-2.62,-1.81,active
